# This is one part of the list.
# Chains of the proteins cited; added tags and fusions are not shown. Lines headed by an entry give the natural chain unless they say otherwise; changes in a name come on top.
# UniProt Q9UK99: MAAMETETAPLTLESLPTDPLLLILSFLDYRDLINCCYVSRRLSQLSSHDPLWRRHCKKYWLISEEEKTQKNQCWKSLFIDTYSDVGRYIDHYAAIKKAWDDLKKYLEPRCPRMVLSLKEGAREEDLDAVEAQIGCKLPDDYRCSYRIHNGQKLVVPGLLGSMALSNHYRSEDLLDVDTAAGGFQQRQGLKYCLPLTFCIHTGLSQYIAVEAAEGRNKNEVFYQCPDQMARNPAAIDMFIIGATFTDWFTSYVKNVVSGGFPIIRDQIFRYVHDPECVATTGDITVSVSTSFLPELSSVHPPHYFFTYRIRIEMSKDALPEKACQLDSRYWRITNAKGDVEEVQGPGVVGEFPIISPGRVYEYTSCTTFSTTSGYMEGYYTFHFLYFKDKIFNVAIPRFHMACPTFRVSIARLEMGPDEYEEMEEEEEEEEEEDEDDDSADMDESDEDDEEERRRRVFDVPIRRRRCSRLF
# UniProt Q6PIJ6: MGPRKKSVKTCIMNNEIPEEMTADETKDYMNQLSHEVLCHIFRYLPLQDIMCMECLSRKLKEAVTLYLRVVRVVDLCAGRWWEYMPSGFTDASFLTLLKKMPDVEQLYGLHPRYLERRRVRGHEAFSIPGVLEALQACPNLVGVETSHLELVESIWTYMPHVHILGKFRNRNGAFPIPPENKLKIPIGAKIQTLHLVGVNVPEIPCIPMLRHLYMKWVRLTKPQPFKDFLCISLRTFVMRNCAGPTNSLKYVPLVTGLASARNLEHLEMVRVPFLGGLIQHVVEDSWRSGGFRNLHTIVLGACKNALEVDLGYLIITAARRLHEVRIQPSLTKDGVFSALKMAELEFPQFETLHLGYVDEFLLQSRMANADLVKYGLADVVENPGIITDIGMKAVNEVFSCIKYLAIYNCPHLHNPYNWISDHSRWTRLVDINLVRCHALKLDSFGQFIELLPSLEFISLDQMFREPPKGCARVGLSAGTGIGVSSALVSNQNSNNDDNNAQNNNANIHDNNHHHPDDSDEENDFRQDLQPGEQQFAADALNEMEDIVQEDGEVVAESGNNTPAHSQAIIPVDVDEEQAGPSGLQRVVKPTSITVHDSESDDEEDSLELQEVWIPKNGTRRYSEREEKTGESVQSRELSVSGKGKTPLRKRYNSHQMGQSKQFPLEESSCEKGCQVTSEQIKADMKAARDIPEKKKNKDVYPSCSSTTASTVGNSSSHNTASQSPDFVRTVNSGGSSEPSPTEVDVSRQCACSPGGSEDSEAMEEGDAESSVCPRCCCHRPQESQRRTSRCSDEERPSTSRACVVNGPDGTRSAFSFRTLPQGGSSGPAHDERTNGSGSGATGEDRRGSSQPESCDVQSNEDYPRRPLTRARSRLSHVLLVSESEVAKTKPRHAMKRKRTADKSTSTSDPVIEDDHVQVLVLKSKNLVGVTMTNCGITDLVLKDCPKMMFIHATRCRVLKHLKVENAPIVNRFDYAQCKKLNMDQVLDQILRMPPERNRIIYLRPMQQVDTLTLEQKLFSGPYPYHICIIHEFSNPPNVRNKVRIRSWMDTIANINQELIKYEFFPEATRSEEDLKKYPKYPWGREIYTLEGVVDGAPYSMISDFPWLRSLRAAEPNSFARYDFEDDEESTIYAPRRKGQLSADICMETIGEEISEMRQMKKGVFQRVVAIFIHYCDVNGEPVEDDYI
# UniProt Q96CP2: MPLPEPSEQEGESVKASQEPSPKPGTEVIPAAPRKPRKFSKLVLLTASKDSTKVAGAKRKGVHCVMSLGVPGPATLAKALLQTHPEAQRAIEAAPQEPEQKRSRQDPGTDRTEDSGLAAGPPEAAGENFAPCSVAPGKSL
# UniProt Q6PJ61: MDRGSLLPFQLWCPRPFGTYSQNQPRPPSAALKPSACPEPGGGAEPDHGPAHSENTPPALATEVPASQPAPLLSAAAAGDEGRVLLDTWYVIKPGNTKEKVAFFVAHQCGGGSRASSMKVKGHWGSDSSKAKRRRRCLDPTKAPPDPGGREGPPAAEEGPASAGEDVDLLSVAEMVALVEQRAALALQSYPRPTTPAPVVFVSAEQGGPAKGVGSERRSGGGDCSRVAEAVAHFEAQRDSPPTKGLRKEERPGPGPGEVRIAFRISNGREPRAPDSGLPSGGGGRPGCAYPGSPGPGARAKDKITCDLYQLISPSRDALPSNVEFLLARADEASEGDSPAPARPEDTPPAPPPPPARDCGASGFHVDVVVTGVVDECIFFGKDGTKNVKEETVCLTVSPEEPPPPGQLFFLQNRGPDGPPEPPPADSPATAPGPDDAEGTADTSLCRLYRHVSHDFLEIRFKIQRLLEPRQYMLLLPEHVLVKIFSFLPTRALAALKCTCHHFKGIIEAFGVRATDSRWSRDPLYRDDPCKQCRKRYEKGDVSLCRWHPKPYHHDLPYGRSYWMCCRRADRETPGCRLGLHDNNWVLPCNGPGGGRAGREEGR
# UniProt Q9Y285: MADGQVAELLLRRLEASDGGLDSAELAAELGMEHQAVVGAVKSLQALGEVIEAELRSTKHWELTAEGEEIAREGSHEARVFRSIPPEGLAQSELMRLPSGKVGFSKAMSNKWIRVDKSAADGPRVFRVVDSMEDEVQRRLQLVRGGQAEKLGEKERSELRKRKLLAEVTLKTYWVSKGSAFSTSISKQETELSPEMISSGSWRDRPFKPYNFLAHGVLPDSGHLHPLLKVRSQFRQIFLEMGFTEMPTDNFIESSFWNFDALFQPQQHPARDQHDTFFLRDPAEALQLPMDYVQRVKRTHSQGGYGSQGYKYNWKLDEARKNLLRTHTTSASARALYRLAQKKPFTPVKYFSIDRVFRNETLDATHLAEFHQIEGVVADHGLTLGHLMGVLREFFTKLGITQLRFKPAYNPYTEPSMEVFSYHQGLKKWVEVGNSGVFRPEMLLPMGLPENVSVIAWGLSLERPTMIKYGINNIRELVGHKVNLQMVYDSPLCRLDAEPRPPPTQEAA
# UniProt Q6P3S6: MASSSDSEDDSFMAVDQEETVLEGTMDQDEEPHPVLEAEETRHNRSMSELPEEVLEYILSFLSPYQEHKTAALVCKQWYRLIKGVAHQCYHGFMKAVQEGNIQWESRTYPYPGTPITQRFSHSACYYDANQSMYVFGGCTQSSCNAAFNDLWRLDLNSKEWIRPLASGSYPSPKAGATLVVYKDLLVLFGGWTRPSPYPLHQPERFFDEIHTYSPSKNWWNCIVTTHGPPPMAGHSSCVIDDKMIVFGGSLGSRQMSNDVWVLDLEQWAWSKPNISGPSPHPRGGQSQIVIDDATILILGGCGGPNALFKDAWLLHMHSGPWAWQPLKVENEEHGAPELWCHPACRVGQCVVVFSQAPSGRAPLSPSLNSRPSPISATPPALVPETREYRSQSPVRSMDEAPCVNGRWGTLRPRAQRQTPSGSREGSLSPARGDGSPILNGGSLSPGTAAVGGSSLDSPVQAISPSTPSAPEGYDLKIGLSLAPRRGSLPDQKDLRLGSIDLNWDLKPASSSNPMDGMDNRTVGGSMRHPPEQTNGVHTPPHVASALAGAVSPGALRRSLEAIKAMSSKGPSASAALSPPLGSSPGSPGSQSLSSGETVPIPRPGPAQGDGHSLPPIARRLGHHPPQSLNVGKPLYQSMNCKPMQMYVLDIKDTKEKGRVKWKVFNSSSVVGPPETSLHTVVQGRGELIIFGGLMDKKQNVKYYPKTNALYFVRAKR
# UniProt Q13045: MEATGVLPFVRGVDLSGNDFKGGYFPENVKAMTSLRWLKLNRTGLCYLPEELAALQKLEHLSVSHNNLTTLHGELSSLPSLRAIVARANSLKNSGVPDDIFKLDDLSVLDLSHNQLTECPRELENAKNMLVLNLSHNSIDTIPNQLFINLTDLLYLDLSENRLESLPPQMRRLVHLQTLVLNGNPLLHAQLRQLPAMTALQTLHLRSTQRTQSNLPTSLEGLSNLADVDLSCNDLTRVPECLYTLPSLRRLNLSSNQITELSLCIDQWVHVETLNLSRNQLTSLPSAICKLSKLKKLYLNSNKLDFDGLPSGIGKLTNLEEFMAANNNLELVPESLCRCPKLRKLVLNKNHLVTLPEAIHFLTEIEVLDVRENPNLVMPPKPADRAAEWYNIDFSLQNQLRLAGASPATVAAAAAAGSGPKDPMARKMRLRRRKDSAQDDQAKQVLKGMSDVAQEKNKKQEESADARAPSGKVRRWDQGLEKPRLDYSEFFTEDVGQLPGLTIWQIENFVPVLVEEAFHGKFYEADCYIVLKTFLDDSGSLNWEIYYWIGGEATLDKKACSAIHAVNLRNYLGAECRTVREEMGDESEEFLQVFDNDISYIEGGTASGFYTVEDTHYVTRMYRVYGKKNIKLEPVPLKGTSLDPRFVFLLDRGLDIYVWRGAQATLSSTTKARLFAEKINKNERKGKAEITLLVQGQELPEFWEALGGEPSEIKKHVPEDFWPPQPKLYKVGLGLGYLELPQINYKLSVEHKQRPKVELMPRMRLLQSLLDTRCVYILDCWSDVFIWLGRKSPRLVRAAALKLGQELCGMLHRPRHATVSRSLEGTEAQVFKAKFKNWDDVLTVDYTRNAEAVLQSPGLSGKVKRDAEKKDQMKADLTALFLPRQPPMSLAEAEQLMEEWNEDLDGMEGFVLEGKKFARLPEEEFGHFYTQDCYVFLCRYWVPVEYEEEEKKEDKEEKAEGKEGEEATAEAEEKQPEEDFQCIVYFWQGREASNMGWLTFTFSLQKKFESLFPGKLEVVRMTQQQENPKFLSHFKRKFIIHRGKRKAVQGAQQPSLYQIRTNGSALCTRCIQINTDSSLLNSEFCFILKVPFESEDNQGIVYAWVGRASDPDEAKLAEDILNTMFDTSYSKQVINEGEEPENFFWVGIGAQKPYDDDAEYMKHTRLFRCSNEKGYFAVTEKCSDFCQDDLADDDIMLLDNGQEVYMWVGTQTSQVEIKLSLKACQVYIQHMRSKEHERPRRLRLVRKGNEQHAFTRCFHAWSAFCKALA
# UniProt Q8N0W3: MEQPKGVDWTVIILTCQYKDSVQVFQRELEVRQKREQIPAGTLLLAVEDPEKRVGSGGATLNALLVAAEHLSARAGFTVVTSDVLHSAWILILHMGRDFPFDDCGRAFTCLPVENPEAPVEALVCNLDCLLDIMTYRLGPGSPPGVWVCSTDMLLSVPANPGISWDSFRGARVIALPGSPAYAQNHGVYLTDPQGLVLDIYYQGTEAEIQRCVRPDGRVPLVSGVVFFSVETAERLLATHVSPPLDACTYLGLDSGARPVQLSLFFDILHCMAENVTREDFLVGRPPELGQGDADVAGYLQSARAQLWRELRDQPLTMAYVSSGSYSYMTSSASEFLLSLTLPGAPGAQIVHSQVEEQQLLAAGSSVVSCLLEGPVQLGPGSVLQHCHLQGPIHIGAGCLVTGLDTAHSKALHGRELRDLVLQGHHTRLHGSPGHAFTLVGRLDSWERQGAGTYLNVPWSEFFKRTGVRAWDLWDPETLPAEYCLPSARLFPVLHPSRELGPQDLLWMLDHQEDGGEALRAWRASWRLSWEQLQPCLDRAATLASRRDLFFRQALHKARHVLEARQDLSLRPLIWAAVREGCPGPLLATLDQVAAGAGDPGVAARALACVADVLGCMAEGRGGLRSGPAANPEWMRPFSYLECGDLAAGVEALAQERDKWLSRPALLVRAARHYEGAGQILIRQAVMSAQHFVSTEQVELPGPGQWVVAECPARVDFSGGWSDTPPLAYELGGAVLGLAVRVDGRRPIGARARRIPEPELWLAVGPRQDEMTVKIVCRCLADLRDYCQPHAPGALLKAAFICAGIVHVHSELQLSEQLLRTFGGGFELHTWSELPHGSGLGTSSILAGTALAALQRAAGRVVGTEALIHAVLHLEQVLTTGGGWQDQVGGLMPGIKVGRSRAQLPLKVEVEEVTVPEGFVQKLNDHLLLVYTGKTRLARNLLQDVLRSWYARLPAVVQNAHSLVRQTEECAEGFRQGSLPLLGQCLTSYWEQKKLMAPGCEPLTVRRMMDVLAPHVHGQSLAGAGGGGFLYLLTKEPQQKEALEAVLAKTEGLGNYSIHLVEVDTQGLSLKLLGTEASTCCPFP
# UniProt Q6P4F2: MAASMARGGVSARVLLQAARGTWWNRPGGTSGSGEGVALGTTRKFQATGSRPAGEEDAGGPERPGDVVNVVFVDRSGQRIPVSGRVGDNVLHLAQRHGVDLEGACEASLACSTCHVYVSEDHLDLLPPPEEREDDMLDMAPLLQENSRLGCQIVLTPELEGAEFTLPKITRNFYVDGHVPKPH
# UniProt P37268: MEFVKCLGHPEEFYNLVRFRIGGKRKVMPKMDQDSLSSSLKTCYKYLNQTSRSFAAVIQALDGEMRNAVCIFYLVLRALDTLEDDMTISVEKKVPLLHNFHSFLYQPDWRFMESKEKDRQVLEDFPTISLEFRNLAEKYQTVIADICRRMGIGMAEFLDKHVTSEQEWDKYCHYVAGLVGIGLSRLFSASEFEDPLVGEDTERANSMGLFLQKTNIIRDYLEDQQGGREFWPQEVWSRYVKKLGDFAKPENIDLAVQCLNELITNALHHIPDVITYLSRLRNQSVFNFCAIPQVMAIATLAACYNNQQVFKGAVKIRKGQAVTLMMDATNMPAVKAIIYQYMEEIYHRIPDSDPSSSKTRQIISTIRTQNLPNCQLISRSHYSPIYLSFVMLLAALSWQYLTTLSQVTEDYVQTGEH
# How the values were obtained:
# Test in all cases: log2 fold change, soluble protein after heating vs DMSO (PISA); higher = thermal stabilisation; K562 lysate, 10 uM; active = over 0.2 and 3.5 SD of the protein, either way, in both replicates (recomputed)
# [1] = compound: C1=CC=C(C=C1)[C@H](COC2=CC3=C(C=C2)NC(=O)N3)NC(=O)C4=CC=CN(C4=O)CC5=CC(=C(C=C5)F)F
# Outline: (§1)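 Thermal stability, expressed as log-two fold change relative to solvent controls, is given from duplicates. Crude K562 extract in PBS pH 7.4 with 1 mM MgCl2, at 1 mg/mL protein, was treated with 10 μM compound for 30 min and heated in aliquots for 3 min across 48°C-58°C. After pooling, adjustment to 0.5% NP-40 at 4°C and centrifugation at 21,000xg for 90 min, supernatant protein was measured by TMTpro 16plex LC-MS/MS with channel sums equalised.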
# [2] = compound: CC1=C(SC2=C1C(=N[C@H](C3=NN=C(N32)C)CC(=O)N)C4=CC=C(C=C4)Cl)C
# Outline: as §1
# [3] = compound: CC1=C2C(=CC=C1)N=C(N(C2=O)C3=CC=CC=C3C)CN4C=NC5=C(N=CN=C54)N
# Outline: as §1
# [4] = compound: Cc1sc2c(c1C)C(c1ccc(Cl)cc1)=N[C@@H](CC(=O)OC(C)(C)C)c1nnc(C)n1-2
# Outline: as §1
# [5] = compound: c1ccc([C@@H]2C[C@H]2NC2CCNCC2)cc1
# Outline: as §1
Target,log2 fold change [1],log2 fold change [2],log2 fold change [3],log2 fold change [4],log2 fold change [5]
FLAD1 (UniProt Q8NFF5),inactive: 0.006,inactive: 0.032,inactive: 0.011,inactive: 0.017,inactive: 0.022
FBXL8 (UniProt Q96CD0),inactive: 0.176,inactive: -0.014,inactive: 0.051,inactive: -0.019,inactive: -0.001
FHL3 (UniProt Q13643),inactive: 0.083,inactive: -0.034,inactive: -0.008,inactive: -0.014,inactive: -0.033
FBXO3 (UniProt Q9UK99),inactive: -0.002,inactive: 0.055,inactive: 0.004,inactive: -0.026,inactive: -0.013
FLNA (UniProt P21333),inactive: -0.004,inactive: 0.006,inactive: -0.004,inactive: -0.024,inactive: -0.053
FBXO38 (UniProt Q6PIJ6),inactive: -0.007,inactive: 0.094,inactive: 0.007,inactive: 0.068,inactive: 0.013
FBRS (UniProt J3KNZ9),inactive: -0.1,inactive: 0.057,inactive: 0.001,inactive: -0.019,inactive: -0.006
FANCB (UniProt Q8NB91),inactive: 0.007,inactive: -0.032,inactive: 0.064,inactive: 0.1,inactive: -0.03
FGFR1OP (UniProt O95684),inactive: 0.013,inactive: 0.026,inactive: 0.004,inactive: -0.03,inactive: 0.002
FN3K (UniProt Q9H479),inactive: 0.023,inactive: 0.015,inactive: 0.029,inactive: -0.023,inactive: 0.038
FLYWCH2 (UniProt Q96CP2),inactive: 0.014,inactive: 0.069,inactive: -0.01,inactive: 0.046,inactive: 0.068
FDXR isoform 7 (UniProt P22570),inactive: 0.005,inactive: -0.004,inactive: 0,inactive: 0.068,inactive: 0.011
FKBP9 (UniProt O95302),inactive: -0.041,inactive: 0.001,inactive: 0.038,inactive: -0.003,inactive: -0.009
FERMT2 isoform 3 (UniProt Q96AC1),inactive: 0.007,inactive: -0.058,inactive: 0.073,inactive: -0.025,inactive: -0.034
FLOT1 (UniProt O75955),inactive: 0.012,inactive: 0.01,inactive: 0.038,inactive: -0.008,inactive: 0.015
FARS2 (UniProt O95363),inactive: 0.154,inactive: -0.067,inactive: 0.006,–,inactive: 0.155
FGGY isoform 3 (UniProt Q96C11),inactive: -0.042,inactive: -0.148,inactive: -0.016,inactive: -0.093,inactive: 0.091
FBXO46 (UniProt Q6PJ61),inactive: -0.004,inactive: -0.01,inactive: -0.041,inactive: -0.018,inactive: -0.037
FAT2 (UniProt Q9NYQ8),inactive: -0.009,inactive: 0.092,inactive: 0.104,–,inactive: -0.161

Target,log2 fold change [1],log2 fold change [2],log2 fold change [3],log2 fold change [4],log2 fold change [5]
FGD6 (UniProt Q6ZV73),inactive: -0.595,inactive: 0.057,inactive: -0.768,inactive: 0.036,inactive: -0.001
FARSA (UniProt Q9Y285),inactive: 0.028,inactive: 0.171,inactive: -0.003,inactive: -0.028,inactive: -0.009
FBXO42 (UniProt Q6P3S6),inactive: 0.079,inactive: -0.02,inactive: 0.011,inactive: 0.207,inactive: -0.027
FLII (UniProt Q13045),inactive: 0.045,inactive: -0.033,inactive: 0,inactive: 0.007,inactive: 0.04
FBLN1 (UniProt P23142),inactive: -0.023,inactive: 0.068,inactive: 0.026,–,inactive: -0.134
FBXO4 (UniProt Q9UKT5),inactive: 0.022,inactive: -0.036,inactive: -0.001,inactive: -0.022,inactive: -0.004
FASTKD2 (UniProt Q9NYY8),inactive: -0.013,inactive: 0.044,inactive: 0.018,inactive: 0.017,inactive: 0.002
FBXO45 (UniProt P0C2W1),inactive: -0.079,inactive: -0.177,inactive: -0.004,–,inactive: 0.053
FCSK (UniProt Q8N0W3),inactive: 0.008,inactive: -0.002,inactive: 0.052,inactive: -0.066,inactive: -0.018
FBXL12 (UniProt Q9NXK8),inactive: -0.058,inactive: 0.131,inactive: -0.015,inactive: 0.041,inactive: -0.01
FDX2 (UniProt Q6P4F2),inactive: -0.039,inactive: 0.021,inactive: -0.012,inactive: 0.062,inactive: -0.05
FDFT1 (UniProt P37268),inactive: -0.045,active: 0.268,inactive: 0,inactive: 0.107,inactive: -0.047
FAM98A (UniProt Q8NCA5),inactive: 0.017,inactive: 0.002,inactive: -0.048,inactive: 0.016,inactive: 0.02
FKBP2 (UniProt P26885),inactive: 0.028,inactive: -0.016,inactive: -0.021,inactive: 0.011,inactive: -0.041
FBXO44 isoform 2 (UniProt Q9H4M3),inactive: 0.336,inactive: 0.064,inactive: -0.079,inactive: -0.026,inactive: -0.074
FKBP14 (UniProt Q9NWM8),inactive: 0.068,inactive: -0.058,inactive: 0.029,inactive: 0.015,inactive: -0.046
FMR1 isoform 9 (UniProt Q06787),inactive: -0.303,inactive: -0.096,–,inactive: 0.282,–
FAM8A1 (UniProt Q9UBU6),inactive: -0.073,inactive: -0.023,inactive: -0.012,inactive: -0.046,inactive: 0.087
FANCD2 isoform 1 (UniProt Q9BXW9),inactive: -0.002,inactive: 0.039,inactive: 0.012,inactive: -0.018,inactive: -0.054

# Single records, as listed above. Order of values: log2 fold change [1]	log2 fold change [2]	log2 fold change [3]	log2 fold change [4]	log2 fold change [5]
# FANCB (UniProt Q8NB91) in the list: inactive: 0.007	inactive: -0.032	inactive: 0.064	inactive: 0.1	inactive: -0.03
# FDX2 (UniProt Q6P4F2) in the list: inactive: -0.039	inactive: 0.021	inactive: -0.012	inactive: 0.062	inactive: -0.05
# FMR1 isoform 9 (UniProt Q06787) in the list: inactive: -0.303	inactive: -0.096	–	inactive: 0.282	–
